The test has as its target T1, Flag-PPARα (peroxisome proliferator-activated receptor alpha) (UniProt Q07869).
T1 sequence: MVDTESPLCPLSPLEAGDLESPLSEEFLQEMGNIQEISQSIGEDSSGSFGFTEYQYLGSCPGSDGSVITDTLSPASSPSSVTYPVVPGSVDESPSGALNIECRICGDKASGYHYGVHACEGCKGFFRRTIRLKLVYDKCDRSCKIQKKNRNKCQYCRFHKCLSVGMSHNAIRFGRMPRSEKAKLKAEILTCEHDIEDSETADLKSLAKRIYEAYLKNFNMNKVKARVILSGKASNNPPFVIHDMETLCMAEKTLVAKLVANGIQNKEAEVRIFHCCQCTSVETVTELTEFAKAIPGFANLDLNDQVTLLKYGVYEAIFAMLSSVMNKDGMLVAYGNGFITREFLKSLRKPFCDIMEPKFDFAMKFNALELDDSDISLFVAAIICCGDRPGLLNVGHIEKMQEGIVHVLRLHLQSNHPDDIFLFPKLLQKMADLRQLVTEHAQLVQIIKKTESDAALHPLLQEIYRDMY
The test can be described thus: affinity purification with mass spectrometry; Flag-PPARα overexpressed in HEK293T cells; immunoprecipitation with Anti-Flag and Anti-IgG magnetic beads, then mass spectrometry (IP-MS, n = 2).

No constants are given. Whether binding was seen depends on the method and setting. In cells and extracts the contact can be indirect. A yes stands for co-enrichment or nearness to the bait. Other partners may have been found. Where a sequence is shown, tags or fusion partners need not be part of it.

B1: FHL1 (protein, UniProt Q13642 1-323)
chain: MAEKFDCHYCRDPLQGKKYVQKDGHHCCLKCFDKFCANTCVECRKPIGADSKEVHYKNRFWHDTCFRCAKCLHPLANETFVAKDNKILCNKCTTREDSPKCKGCFKAIVAGDQNVEYKGTVWHKDCFTCSNCKQVIGTGSFFPKGEDFYCVTCHETKFAKHCVKCNKAITSGGITYQDQPWHADCFVCVTCSKKLAGQRFTAVEDQYYCVDCYKNFVAKKCAGCKNPITGKRTVSRVSHPVSKARKPPVCHGKRLPLTLFPSANLRGRHPGGERTCPSWVVVLYRKNRSLAAPRGPGLVKAPVWWPMKDNPGTTTASTAKNAP
As for B1, the binding result was “binds”.

B2: HMMR (protein, UniProt O75330 1-724)
chain: MSFPKAPLKRFNDPSGCAPSPGAYDVKTLEVLKGPVSFQKSQRFKQQKESKQNLNVDKDTTLPASARKVKSSESKESQKNDKDLKILEKEIRVLLQERGAQDRRIQDLETELEKMEARLNAALREKTSLSANNATLEKQLIELTRTNELLKSKFSENGNQKNLRILSLELMKLRNKRETKMRGMMAKQEGMEMKLQVTQRSLEESQGKIAQLEGKLVSIEKEKIDEKSETEKLLEYIEEISCASDQVEKYKLDIAQLEENLKEKNDEILSLKQSLEENIVILSKQVEDLNVKCQLLEKEKEDHVNRNREHNENLNAEMQNLKQKFILEQQEREKLQQKELQIDSLLQQEKELSSSLHQKLCSFQEEMVKEKNLFEEELKQTLDELDKLQQKEEQAERLVKQLEEEAKSRAEELKLLEEKLKGKEAELEKSSAAHTQATLLLQEKYDSMVQSLEDVTAQFESYKALTASEIEDLKLENSSLQEKAAKAGKNAEDVQHQILATESSNQEYVRMLLDLQTKSALKETEIKEITVSFLQKITDLQNQLKQQEEDFRKQLEDEEGRKAEKENTTAELTEEINKWRLLYEELYNKTKPFQLQLDAFEVEKQALLNEHGAAQEQLNKIRDSYAKLLGHQNLKQKIKHVVKLKDENSQLKSEVSKLRCQLAKKKQSETKLQEELNKVLGIKHFDPSKAFHHESKENFALKTPLKEGNTNCYRAPMECQESWK
For B2, the binding entry is “binds”.

B3: USP4 (endogenous, HEK293T; hit of the IP-MS) (enzyme, UniProt Q13107 1-963)
chain: MAEGGGCRERPDAETQKSELGPLMRTTLQRGAQWYLIDSRWFKQWKKYVGFDSWDMYNVGEHNLFPGPIDNSGLFSDPESQTLKEHLIDELDYVLVPTEAWNKLLNWYGCVEGQQPIVRKVVEHGLFVKHCKVEVYLLELKLCENSDPTNVLSCHFSKADTIATIEKEMRKLFNIPAERETRLWNKYMSNTYEQLSKLDNTVQDAGLYQGQVLVIEPQNEDGTWPRQTLQSKSSTAPSRNFTTSPKSSASPYSSVSASLIANGDSTSTCGMHSSGVSRGGSGFSASYNCQEPPSSHIQPGLCGLGNLGNTCFMNSALQCLSNTAPLTDYFLKDEYEAEINRDNPLGMKGEIAEAYAELIKQMWSGRDAHVAPRMFKTQVGRFAPQFSGYQQQDSQELLAFLLDGLHEDLNRVKKKPYLELKDANGRPDAVVAKEAWENHRLRNDSVIVDTFHGLFKSTLVCPECAKVSVTFDPFCYLTLPLPLKKDRVMEVFLVPADPHCRPTQYRVTVPLMGAVSDLCEALSRLSGIAAENMVVADVYNHRFHKIFQMDEGLNHIMPRDDIFVYEVCSTSVDGSECVTLPVYFRERKSRPSSTSSASALYGQPLLLSVPKHKLTLESLYQAVCDRISRYVKQPLPDEFGSSPLEPGACNGSRNSCEGEDEEEMEHQEEGKEQLSETEGSGEDEPGNDPSETTQKKIKGQPCPKRLFTFSLVNSYGTADINSLAADGKLLKLNSRSTLAMDWDSETRRLYYDEQESEAYEKHVSMLQPQKKKKTTVALRDCIELFTTMETLGEHDPWYCPNCKKHQQATKKFDLWSLPKILVVHLKRFSYNRYWRDKLDTVVEFPIRGLNMSEFVCNLSARPYVYDLIAVSNHYGAMGVGHYTAYAKNKLNGKWYYFDDSNVSLASEDQIVTKAAYVLFYQRRDDEFYKTPSLSSSGSSDGGTRPSSSQQGFGDDEACSMDTN
With B3, the binding result is reported as “binds”.

B4: UCK2 (enzyme, UniProt Q9BZX2 1-261)
chain: MAGDSEQTLQNHQQPNGGEPFLIGVSGGTASGKSSVCAKIVQLLGQNEVDYRQKQVVILSQDSFYRVLTSEQKAKALKGQFNFDHPDAFDNELILKTLKEITEGKTVQIPVYDFVSHSRKEETVTVYPADVVLFEGILAFYSQEVRDLFQMKLFVDTDADTRLSRRVLRDISERGRDLEQILSQYITFVKPAFEEFCLPTKKYADVIIPRGADNLVAINLIVQHIQDILNGGPSKRQTNGCLNGYTPSRKRQASESSSRPH
Take B4: the binding result is given as “binds”.

The values are drawn from paper PMC12199328.
